In patent publication US20120122981A1, “Biomarkers Related to Insulin Resistance and Methods using the Same” (priority 2009, published 2012):

Test: Global metabolomic profiling of plasma by GC-MS and LC-MS; t-tests and correlation with glucose disposal rate (Rd)
Set-up: species or system human

CC(C)C(=O)C(=O)O [3-methyl-2-oxo-butyric acid, 3-methyl-2-oxo-butanoic acid]
level in progressive insulin resistant states: increase
